The other results are listed elsewhere or left out. Shown are side measurements of this screen, not its main read-out; they come without a call. Most of these compounds were active or inconclusive in the main read-out, so they are no random draw. The note in brackets gives the kind of curve behind each potency; many fits are weak.

This test in a line: qHTS for identification of novel therapeutic agents for treatment of microphthalmiaassociated transcription factor (MiT) renal cell carcinoma (RCC) (AID 1963991). The conditions noted are these: CellTiter-Glo, 48 h; for z-score: stronger effect = lower value. The essentials: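 Three TFE3-fusion RCC lines (UOK109, UOK124, UOK145), 500 cells/well in complete medium, were treated with MIPE 4.0 compounds for 48 hours at 37 C. Viability was by CellTiter-Glo luminescence, normalized to DMSO (100%) and empty wells (0%); curves fitted over 11 concentrations.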

[1] abbreviates: TFE3-RCC UOK109 viability, measured here: UOK109 Z-AUC.
[2] abbreviates: TFE3-RCC viability, measured here: UOK124 Z-AUC.
The mark [3] stands for this setting: TFE3-RCC viability, measured here: UOK124 cell viability.
Setting [4] is: TFE3-RCC viability, measured here: UOK145 Z-AUC.
Setting [5] is: TFE3-RCC viability, measured here: UOK145 cell viability.

With `CC=C(C)C(=O)O[C@H]1C(C)=C[C@]23C(=O)[C@@H](C=C(CO)[C@@H](O)[C@]12O)[C@H]1[C@@H](C[C@H]3C)C1(C)C`, the z-score under setting [1] worked out at 0.699, the z-score under setting [2] was -1.46 and the z-score under setting [4] is -1.56. Moreover, the AC50 is 0.0296 µM [falling, full curve] under setting [3] and 0.0662 µM [falling, full curve] under setting [5].

Take `CCC(=O)OCC(=O)[C@@]1(OC(=O)CC)[C@@H](C)C[C@@H]2[C@H]3CCC4=CC(=O)C=C[C@]4(C)[C@@]3(F)[C@@H](O)C[C@@]21C`: the z-score is, setting by setting: under setting [1], -0.892; under setting [2], 0.648; under setting [4], 1.84. Further, the half-maximal activity concentration (AC50) is, setting by setting: under setting [3], 18.7 µM [falling, partial curve, poor fit]; under setting [5], 5.26 µM [falling, partial curve].

Turning to `CN(C)c1ccc2cc(C(=O)N[C@@H](CCCN=C(N)CCl)C(=O)NCc3ccccc3)ccc2c1`, the z-score was 0.245 under setting [1], -0.163 under setting [2] and 0.00223 under setting [4]. The half-maximal activity concentration (AC50) was 23.5 µM [falling, partial curve] under setting [3] and 16.6 µM [falling, partial curve] under setting [5].

On to `O=c1[nH]c(=O)n([C@H]2C[C@@H](O)[C@@H](CO)O2)cc1F`, for which the z-score is -0.672 under setting [1], -0.149 under setting [2] and -1.2 under setting [4]. Further, the AC50 reads like this: under setting [3], 5.9 µM [falling, partial curve]; under setting [5], 1.05 µM [falling, full curve].

For `COc1ccc(COc2cc3oc(=O)c4cc(C(C)O)ccc4c3cc2OC)cc1` (stereo not given), the z-score by setting is: under setting [1], 0.507; under setting [2], 2.18; under setting [4], 0.908. For the same compound, the AC50 is, setting by setting: under setting [3], 23.5 µM [falling, single point]; under setting [5], 23.5 µM [falling, single point].

With `CCCCCN=C(N)NN=Cc1c[nH]c2ccc(OC)cc12`, the z-score is -0.385 under setting [1], -0.474 under setting [2] and -0.479 under setting [4]. The concentration at half-maximal activity (AC50) by setting is: under setting [3], 4.18 µM [falling, full curve]; under setting [5], 7.43 µM [falling, full curve].

For the origin of these results see PubChem BioAssay (NCATS).
